{"source": "PubChem BioAssay AID504808 (Drosophila RNAi Screening Center, 2011)", "assay": "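Chromatin factors that keep E2F targets switched off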 (primary screen)", "cell system": "Drosophila S2 cells", "reagents": "long dsRNA against Drosophila genes", "read-out": "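Dual luciferase plate measurements; E2F-specific signal taken as firefly over Renilla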", "direction": "E2F firefly: higher = more E2F reporter activity; Renilla normaliser: higher = more normaliser reporter signal", "rule for the call": "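a knock-down counted as active when the firefly/Renilla E2F signal rose above 50%, a threshold chosen arbitrarily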", "note": "The deposit covers about 21,000 reagents; shown is a random part of those that have a named target and a result. Over the whole deposit, 18 (0.084%) were called active. 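Raw counts without plate normalisation, one of two replicates; the ratio scores behind the calls were not deposited.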 A plus sign joins genes that one reagent is predicted to hit. The record does not give: the amount of reagent, the time to read-out."}
{"Gene": "Trxr1 (Thioredoxin reductase 1)", "DRSC id": "DRSC18668", "E2F firefly, rep 1": 7831, "Renilla normaliser, rep 1": 720, "Outcome": "inactive"}
{"Gene": "CG3513", "DRSC id": "DRSC00608", "E2F firefly, rep 1": 1.33e5, "Renilla normaliser, rep 1": 5339, "Outcome": "inactive"}
{"Gene": "CG10359", "DRSC id": "DRSC08156", "E2F firefly, rep 1": 78697, "Renilla normaliser, rep 1": 4026, "Outcome": "inactive"}
{"Gene": "pigs (pickled eggs)", "DRSC id": "DRSC17472", "E2F firefly, rep 1": 77603, "Renilla normaliser, rep 1": 2213, "Outcome": "inactive"}
{"Gene": "pigs (pickled eggs)", "DRSC id": "DRSC18334", "E2F firefly, rep 1": 63927, "Renilla normaliser, rep 1": 4742, "Outcome": "inactive"}
{"Gene": "pigs (pickled eggs)", "DRSC id": "DRSC18335", "E2F firefly, rep 1": 64721, "Renilla normaliser, rep 1": 5058, "Outcome": "inactive"}
{"Gene": "RpS29 + snoRNA:Psi18S-1275", "DRSC id": "DRSC16433", "E2F firefly, rep 1": 73003, "Renilla normaliser, rep 1": 6546, "Outcome": "inactive"}
{"Gene": "CG7448 (retired record)", "DRSC id": "DRSC11828", "E2F firefly, rep 1": 76906, "Renilla normaliser, rep 1": 3772, "Outcome": "inactive"}
{"Gene": "RYa-R (RYamide receptor)", "DRSC id": "DRSC16757", "E2F firefly, rep 1": 1877, "Renilla normaliser, rep 1": 848, "Outcome": "inactive"}
{"Gene": "Crys (Crystallin)", "DRSC id": "DRSC03294", "E2F firefly, rep 1": 66095, "Renilla normaliser, rep 1": 3304, "Outcome": "inactive"}
{"Gene": "bon (bonus)", "DRSC id": "DRSC16914", "E2F firefly, rep 1": 1.63e5, "Renilla normaliser, rep 1": 7310, "Outcome": "inactive"}
{"Gene": "CG4607", "DRSC id": "DRSC18375", "E2F firefly, rep 1": 1.14e5, "Renilla normaliser, rep 1": 6475, "Outcome": "inactive"}
{"Gene": "CG5515", "DRSC id": "DRSC15825", "E2F firefly, rep 1": 66692, "Renilla normaliser, rep 1": 3062, "Outcome": "inactive"}
{"Gene": "GstD11 (Glutathione S transferase D11)", "DRSC id": "DRSC15251", "E2F firefly, rep 1": 1.55e5, "Renilla normaliser, rep 1": 6691, "Outcome": "inactive"}
{"Gene": "yem (yemanuclein)", "DRSC id": "DRSC14865", "E2F firefly, rep 1": 1.22e5, "Renilla normaliser, rep 1": 7925, "Outcome": "inactive"}
{"Gene": "yem (yemanuclein)", "DRSC id": "DRSC17097", "E2F firefly, rep 1": 1.22e5, "Renilla normaliser, rep 1": 10764, "Outcome": "inactive"}
{"Gene": "CG13590", "DRSC id": "DRSC04226", "E2F firefly, rep 1": 1.12e5, "Renilla normaliser, rep 1": 4797, "Outcome": "inactive"}
{"Gene": "CG3776", "DRSC id": "DRSC04417", "E2F firefly, rep 1": 1.00e5, "Renilla normaliser, rep 1": 4177, "Outcome": "inactive"}
{"Gene": "Snmp1 (Sensory neuron membrane protein 1)", "DRSC id": "DRSC16168", "E2F firefly, rep 1": 99523, "Renilla normaliser, rep 1": 5001, "Outcome": "inactive"}
{"Gene": "Mitf", "DRSC id": "DRSC17212", "E2F firefly, rep 1": 40839, "Renilla normaliser, rep 1": 3573, "Outcome": "inactive"}
{"Gene": "Mitf", "DRSC id": "DRSC21056", "E2F firefly, rep 1": 72188, "Renilla normaliser, rep 1": 4397, "Outcome": "inactive"}
{"Gene": "csw (corkscrew)", "DRSC id": "DRSC18756", "E2F firefly, rep 1": 1.28e5, "Renilla normaliser, rep 1": 6946, "Outcome": "inactive"}
{"Gene": "CG18420", "DRSC id": "DRSC01954", "E2F firefly, rep 1": 87064, "Renilla normaliser, rep 1": 4205, "Outcome": "inactive"}
{"Gene": "CG33757", "DRSC id": "DRSC05159", "E2F firefly, rep 1": 1.42e5, "Renilla normaliser, rep 1": 5728, "Outcome": "inactive"}
{"Gene": "CG6015", "DRSC id": "DRSC15948", "E2F firefly, rep 1": 60834, "Renilla normaliser, rep 1": 4486, "Outcome": "inactive"}
{"Gene": "CG34006 (retired record)", "DRSC id": "DRSC13817", "E2F firefly, rep 1": 79416, "Renilla normaliser, rep 1": 2262, "Outcome": "inactive"}
{"Gene": "CG14459", "DRSC id": "DRSC11719", "E2F firefly, rep 1": 57736, "Renilla normaliser, rep 1": 3471, "Outcome": "inactive"}
{"Gene": "kappaB-Ras + CG30503", "DRSC id": "DRSC06619", "E2F firefly, rep 1": 1.45e5, "Renilla normaliser, rep 1": 4925, "Outcome": "inactive"}
{"Gene": "kappaB-Ras + CG30503", "DRSC id": "DRSC07636", "E2F firefly, rep 1": 1.43e5, "Renilla normaliser, rep 1": 4168, "Outcome": "inactive"}

Entries listed so far whose gene name starts with K or k (2):
{"Gene": "kappaB-Ras + CG30503", "DRSC id": "DRSC06619", "E2F firefly, rep 1": 1.45e5, "Renilla normaliser, rep 1": 4925, "Outcome": "inactive"}
{"Gene": "kappaB-Ras + CG30503", "DRSC id": "DRSC07636", "E2F firefly, rep 1": 1.43e5, "Renilla normaliser, rep 1": 4168, "Outcome": "inactive"}
